Assay results reported in patent publication US10857214B2, “Compositions and methods for treating gluten intolerance and disorders arising therefrom” (Codexis, Inc., priority 2015, dated 2020).

Test system: crude gliadin
Test: SDS-PAGE and proteomic LC-MS/MS analysis of crude gliadin digests
Format: biochemical, Triticum aestivum
Procedure: Digestions at pH 2.5 and 37° C., for 90 min. All concentrations in μM. M: Molecular weight markers, and gliadin: total crude gliadin in the absence of protease. […] Peptide data from LC-MS/MS runs, with intensities obtained using Protein Deconvolution 1.0. […] Digest progress was monitored by gravimetric analysis, optical transmission, SDS-PAGE and mass spectrometry. […] For monitoring with optical transmission, digestion reactions were conducted in 96-well plate with ≥3 replicates of each reaction condition, and turbidity monitored at 595 nm at 37° C. every 2 minutes, for 90 minutes (SpectraMax plate reader, Molecular Devices). […] An aliquot of the reaction mixture was analyzed on an 8% SDS-PAGE gel. The remaining amount was centrifuged and the supernatant was analyzed by mass spectrometry. Supernatant was analyzed by data-dependent LC-MS/MS, in two 1-hour reversed phase gradient runs, configured for top-10 ion selection using CID in a high/low configuration. […]

pepsin: gastric enzyme (EC 3.4.23.1) used as control protease
share of total digest signal accounted for by identified peptides (pepsin 5 μM, fluid protease 0.46 μM, co-digestion using these two concentrations): 13%

B1: neprosin: 29 kDa prolyl endoprotease isolated from Nepenthes pitcher fluid (fraction 2), SEQ ID NO.: 1 (protein)
chain: MQAKFFTFVILSSVFYFNYPLAEARSIQARLANKPKGTIKTIKGDDGEVVDCVDIYKQPAFDHPLLKNHTLQMQPSSYASKVGEYNKLEQPWHKNGECPKGSIPIRRQVITGLPVVKKQFPNLKFAPPSANTNHQYAVIAYFYGNASLQGANATINIWEPNLKNPNGDFSLTQIWISAGSGSSLNTIEAGWQVYPGRTGDSQPRFFIYWTADGYTSTGCYDLTCPGFVQTNNYYAIGMALQPSVYGGQQYELNESIQRDPATGNWWLYLWGTVVGYWPASIYNSITNGADTVEWGGEIYDSSGTGGFHTTTQMGSGHFPTEGYGKASYVRDLQCVDTYGNVISPTANSFQGIAPAPNCYNYQFQQGSSELYLFYGGPGCQ
share of total signal accounted for by the low molecular weight fraction (crude gliadin slurry digested with purified neprosin alone): 10%
